Experimental data published in the supplement of paper PMC10849652.
This is one part of the list.

Amino acid sequences for entries named in this document (tags omitted). A change or cut given only in a name is not applied to a line headed by its entry.
UniProt Q8WWB7: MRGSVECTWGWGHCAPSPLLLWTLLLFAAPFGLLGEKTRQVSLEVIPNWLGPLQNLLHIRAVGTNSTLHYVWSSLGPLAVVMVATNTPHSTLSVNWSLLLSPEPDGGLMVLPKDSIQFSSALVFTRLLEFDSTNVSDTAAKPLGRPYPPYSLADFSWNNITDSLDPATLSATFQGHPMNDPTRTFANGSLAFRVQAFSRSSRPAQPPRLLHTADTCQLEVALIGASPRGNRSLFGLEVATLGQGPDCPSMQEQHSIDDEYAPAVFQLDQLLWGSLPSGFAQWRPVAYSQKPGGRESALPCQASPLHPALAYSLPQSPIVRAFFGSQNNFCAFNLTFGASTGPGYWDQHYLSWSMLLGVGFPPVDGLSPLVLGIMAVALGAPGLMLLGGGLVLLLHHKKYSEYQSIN
UniProt P62879, whole entry, looked up: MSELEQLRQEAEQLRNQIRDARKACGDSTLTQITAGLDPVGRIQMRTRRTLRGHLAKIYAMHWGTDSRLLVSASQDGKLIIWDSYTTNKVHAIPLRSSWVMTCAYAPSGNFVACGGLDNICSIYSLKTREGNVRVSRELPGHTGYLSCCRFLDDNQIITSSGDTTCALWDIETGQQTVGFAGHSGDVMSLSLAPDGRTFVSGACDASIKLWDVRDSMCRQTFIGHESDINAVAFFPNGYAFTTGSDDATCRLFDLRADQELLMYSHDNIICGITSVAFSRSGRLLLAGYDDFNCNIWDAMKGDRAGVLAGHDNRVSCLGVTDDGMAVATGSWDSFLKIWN
UniProt Q9BRR8: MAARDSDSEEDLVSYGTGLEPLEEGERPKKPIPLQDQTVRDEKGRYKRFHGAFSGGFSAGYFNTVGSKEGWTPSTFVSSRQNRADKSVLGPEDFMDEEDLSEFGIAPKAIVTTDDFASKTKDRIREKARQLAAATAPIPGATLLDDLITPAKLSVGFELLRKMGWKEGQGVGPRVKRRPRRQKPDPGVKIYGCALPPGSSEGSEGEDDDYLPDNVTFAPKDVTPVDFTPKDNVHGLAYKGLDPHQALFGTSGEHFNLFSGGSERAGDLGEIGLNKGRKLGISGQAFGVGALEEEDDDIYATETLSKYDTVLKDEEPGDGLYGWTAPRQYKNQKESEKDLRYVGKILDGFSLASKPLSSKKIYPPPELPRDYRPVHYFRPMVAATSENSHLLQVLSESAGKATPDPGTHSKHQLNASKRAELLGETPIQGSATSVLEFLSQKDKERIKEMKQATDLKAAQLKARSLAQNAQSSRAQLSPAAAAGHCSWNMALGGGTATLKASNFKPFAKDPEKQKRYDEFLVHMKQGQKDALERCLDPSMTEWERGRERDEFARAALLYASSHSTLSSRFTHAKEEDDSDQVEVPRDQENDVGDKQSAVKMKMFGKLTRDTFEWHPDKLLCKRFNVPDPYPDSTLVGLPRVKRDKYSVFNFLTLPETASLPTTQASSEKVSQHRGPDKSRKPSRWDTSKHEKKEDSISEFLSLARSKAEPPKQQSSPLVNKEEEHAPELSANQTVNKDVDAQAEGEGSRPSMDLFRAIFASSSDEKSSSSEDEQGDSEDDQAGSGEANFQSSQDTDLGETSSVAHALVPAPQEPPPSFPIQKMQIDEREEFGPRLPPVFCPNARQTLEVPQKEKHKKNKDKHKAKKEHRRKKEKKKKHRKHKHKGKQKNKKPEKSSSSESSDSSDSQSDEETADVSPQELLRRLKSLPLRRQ

Tests used:
Experiment in all cases: log2 fold change, soluble protein after heating vs DMSO (PISA); higher = thermal stabilisation; K562 cells, 10 uM, 30 min; active = over 0.2 and 3.5 SD of the protein, either way, in both replicates (recomputed)
saracatinib = compound: CN1CCN(CCOc2cc(OC3CCOCC3)c3c(Nc4c(Cl)ccc5c4OCO5)ncnc3c2)CC1 [saracatinib]
In short: (§1)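 Values are thermal stability changes relative to control samples and are taken from duplicates. They are stated as log2 fold changes. Before quantification by TMTpro 16plex LC-MS/MS with equalised channel sums, K562 cells at 2×10^6 cells/mL were treated with 10 μM compound for 30 min, heated in aliquots for 3 min across 48°C-58°C, pooled, extracted in PBS with 0.5% NP-40 at 4°C, and centrifuged at 21,000xg for 90 min to give the soluble supernatant.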

sotrastaurin = compound: CN1CCN(c2nc(C3=C(c4c[nH]c5ccccc45)C(=O)NC3=O)c3ccccc3n2)CC1 [sotrastaurin]
In short: as §1

alvocidib = compound: CN1CC[C@H](c2c(O)cc(O)c3c(=O)cc(-c4ccccc4Cl)oc23)[C@H](O)C1 [alvocidib]
In short: as §1

Tubastatin A = compound: CN1CCc2c(c3ccccc3n2Cc2ccc(C(=O)NO)cc2)C1 [Tubastatin A]
In short: as §1

defactinib = compound: CNC(=O)c1ccc(Nc2ncc(C(F)(F)F)c(NCc3nccnc3N(C)S(C)(=O)=O)n2)cc1 [defactinib]
In short: as §1

rucaparib = compound: CNCc1ccc(-c2[nH]c3cc(F)cc4c3c2CCNC4=O)cc1 [rucaparib]
In short: as §1

[1] = compound: CNc1nc(-c2ccc3c(N)n[nH]c3c2)cc(N2C[C@@H](C(=O)NC3CCCCC3)CC[C@H]2C)n1
In short: as §1

encorafenib = compound: COC(=O)N[C@@H](C)CNc1nccc(-c2cn(C(C)C)nc2-c2cc(Cl)cc(NS(C)(=O)=O)c2F)n1 [encorafenib]
In short: as §1

[2] = compound: COC(=O)[C@H](CCSC)NC(=O)C1=C(C=C(C=C1)NC[C@H](CS)N)C2=CC=CC=C2
In short: as §1

[3] = compound: COC1=CC=C(C=C1)CN2C=CC3=C2C=C(C=C3)C(=O)NO
In short: as §1

filanesib = compound: CON(C)C(=O)N1N=C(c2cc(F)ccc2F)S[C@@]1(CCCN)c1ccccc1 [filanesib]
In short: as §1

zotarolimus = compound: CO[C@H]1C[C@@H]2CC[C@@H](C)[C@@](O)(O2)C(=O)C(=O)N2CCCC[C@H]2C(=O)O[C@H]([C@H](C)C[C@@H]2CC[C@H](n3cnnn3)[C@H](OC)C2)CC(=O)[C@H](C)/C=C(\C)[C@@H](O)[C@@H](OC)C(=O)[C@H](C)C[C@H](C)/C=C/C=C/C=C/1C [zotarolimus]
In short: as §1

idasanutlin = compound: COc1cc(C(=O)O)ccc1NC(=O)[C@@H]1N[C@@H](CC(C)(C)C)[C@](C#N)(c2ccc(Cl)cc2F)[C@H]1c1cccc(Cl)c1F [idasanutlin]
In short: as §1

alisertib = compound: COc1cc(Nc2ncc3c(n2)-c2ccc(Cl)cc2C(c2c(F)cccc2OC)=NC3)ccc1C(=O)O [alisertib]
In short: as §1

[4] = compound: COc1cc2nc(-c3cc(F)ccc3O)nc(N[C@@H]3CNC[C@H]3C(C)(C)O)c2cc1OC
In short: as §1

gefitinib = compound: COc1cc2ncnc(Nc3ccc(F)c(Cl)c3)c2cc1OCCCN1CCOCC1 [gefitinib]
In short: as §1

[5] = compound: COc1cccc2cc(-c3nc([C@H]4CC[C@H](C(=O)O)CC4)n4ncnc(N)c34)[nH]c12
In short: as §1

lapatinib = compound: CS(=O)(=O)CCNCc1ccc(-c2ccc3ncnc(Nc4ccc(OCc5cccc(F)c5)c(Cl)c4)c3c2)o1 [lapatinib]
In short: as §1

[6] = compound: CNC(=O)C1=CC=CC=C1NC2=NC(=NC=C2Cl)NC3=C(C=C(C=C3)N4CCOCC4)OC
In short: as §1

pictilisib = compound: CS(=O)(=O)N1CCN(Cc2cc3nc(-c4cccc5[nH]ncc45)nc(N4CCOCC4)c3s2)CC1 [pictilisib]
In short: as §1

Measured: log2 fold change

GLMP (UniProt Q8WWB7)
inactive: saracatinib -0.012 | sotrastaurin 0.244 | alvocidib 0.205 | Tubastatin A 0.005 | defactinib -0.149 | rucaparib 0.123 | [1] 0.034 | encorafenib -0.312 | [2] 0.046 | [3] 0.062 | filanesib -0.076 | zotarolimus -0.257 | idasanutlin -0.086 | alisertib -0.076 | [4] 0.001 | gefitinib -0.064 | [5] -0.082 | lapatinib 0.054

GNB2 (UniProt P62879)
inactive: saracatinib -0.033 | sotrastaurin 0.019 | Tubastatin A 0.015 | [6] -0.002 | defactinib -0.028 | rucaparib -0.004 | [1] 0.039 | encorafenib 0.005 | [2] -0.065 | [3] -0.051 | filanesib 0.034 | zotarolimus -0.006 | idasanutlin -0.058 | alisertib -0.068 | [4] 0.089 | gefitinib 0.085 | [5] -0.071 | lapatinib 0 | pictilisib 0.13

GPATCH1 (UniProt Q9BRR8)
inactive: saracatinib -0.089 | sotrastaurin -0.135 | alvocidib -0.054 | Tubastatin A -0.292 | [6] -0.239 | defactinib -0.055 | rucaparib -0.161 | [1] -0.113 | encorafenib -0.198 | [2] -0.006 | filanesib 0.021 | zotarolimus 0.11 | [4] 0.121 | lapatinib 0.005
